Measured values taken from PubChem BioAssay AID1508600 (Functional Genomics Laboratory (NCATS/FGL), 2020).
In all, about 53,000 sequences went through this assay and about 3,700 (7%) were called active.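 The calls were made as follows: active = gene knockdowns whose robust z-score for IL-1 alpha signal is at least 2 or at most -2, so actives lie on both sides; inactive = the rest.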 The list shows a part of the results.

Assay: Components of the Cytosolic LPS Sensing Pathway: Gene Identification via Genome-wide siRNA Screen;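 also: robust z of the log signal after scaling to non-targeting control siRNA wells of the plate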
Settings: RAW264.7 macrophages, IL-1a HTRF, actives lie on both sides, screened at 100 nM (by protocol), cells primed 5 h with Pam3CSK4 first
In short: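 RAW264.7 mouse macrophages reverse-transfected with single siRNAs (100 nM final) for 48h, primed with Pam3CSK4 for 5 hours, then transfected with LipidA for 24 hour. Supernatant IL-1a read by HTRF; values normalized to negative-control median, log-transformed robust z-scores.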

Sequence | z-score
GGAAGCUUUGGGAAACAGUTT against Bmp2 | inactive: -0.226
GCACUACGAUGACUUCCUGTT against Poll | inactive: -0.65
UCACAGUGCUUAUCAUUGUTT against Olfr506 | inactive: -1.73
GCUGGUGCAUUACUGAGGUTT against Olfr69 | inactive: 0.434
CCUAAGGAGACACGAAGCCTT against Cfp | inactive: -0.119
GGAAUGACUCUAGAAAUGATT against Zc3h13 | inactive: -0.7
GGUGGUUCCCAUUUCCUUATT against BC004004 | inactive: -0.183
GGAAACUUUGUUAAAACAGTT against Tank | inactive: 0.503
GGCAUUUUCUUAUUCAUUGTT against 4933414I15Rik | inactive: 1.48
CCACUAUGUUCUGUGGCAATT against Olfr736 | active: -2.33
GGUCAAUAUGCAGAAAAUGTT against Eif4g2 | inactive: -1.7
CCAGAUACAUCUACAACCGTT against H2-Ab1 | inactive: -0.9
GGGCAAAUGUAAAAAGACUTT against Fst | inactive: 1.28
GGAGCAGGAUUUUGGCAGUTT against Casp2 | inactive: 0.291
GCUUGUGCUCUAAAUAUGATT against Trim52 | inactive: 0.443
GGAAAUAGUUGGUUUUGAATT against Slfn1 | inactive: -1.95
GGCCUUUGUCCUUGUCUUCTT against Syvn1 | inactive: 0.101
GGAGGACUCUGCUUCCAUATT against Pwwp3b | inactive: -0.848
GGAAAAUUGGUACCAACUUTT against Mtfr1 | inactive: -0.657
GGGAACAUACUUCCUAAAGTT against Ermn | inactive: 1.57
GGUAUCCCUAACUGGCAGUTT against Tro | inactive: -0.849
CCCACUUUAACCCUUUAUUTT against Plppr1 | inactive: 0.507

Sequence | z-score
CGACGUGAUCACCAAAGGCTT against Map3k14 | inactive: -0.454
GGAUUUCUAGACUUUAGGATT against Xcr1 | inactive: 0.6
GGUGAUAGGUGUUAGACUATT against Txnl4a | inactive: 0.657
GGUCUCCAUCACAUUCAAGTT against BC024139 | inactive: 1.19
GGGCUGUUAUUUCAAGAAATT against Galnt13 | inactive: -0.173
GGAAACCAUCAUGAAGAAATT against Siae | inactive: -0.127
CGUAUAAUGAGGAUGUGCUTT against Znrf2 | inactive: -0.384
GGUAAUUACGACCUAUUGUTT against Aldh7a1 | inactive: 0.719
ACCUCAGACUCUUCAACUGTT against Olfr112 | inactive: -1.61
CGUCAGAUUGACAAGGCACTT against Serpinb7 | inactive: 0.774
GCUAGAUAUAUUUGCCCACTT against Mpp6 | inactive: 1.4
GGUCUACUGAUAUAAUCAATT against Kif11 | inactive: -0.351
GGCUAAGGCCACAAAUGUGTT against Tacc3 | inactive: -0.371
GGCAGCCAGUGUGCUAAAATT against Atp6v1h | inactive: 1.13
GGAUGAUGAUGGCUUCAUCTT against 2610528J11Rik | inactive: -1.27
GGGAGAUAUCUUCUCAGUATT against Psmb11 | inactive: 1.5
GGCGACAGCGUAAAAGUACTT against Lyst | inactive: -0.347
GCUCCUCUAUAUUUGAAAGTT against Cx3cl1 | inactive: -1.49
GGAUAUGAUGUCAGACAACTT against Zdhhc13 | inactive: -1.13
GCCCAGAGUGUUCAAGUGUTT against Zfp236 | inactive: 0.968
GCAAGACUUGUCAUGACACTT against Lnpk | inactive: -1.08
GGCUAAUAAGUUCAAUCAATT against Ccn4 | inactive: -0.0256

Sequence | z-score
GGCAGAACUCAAAUUCUUGTT against AW209491 | inactive: -0.35
GCCUGAAUUUUUGGGCAUATT against Ripk2 | inactive: -0.496
GGAAGUUGUCCAAGCAAAUTT against Sesn3 | inactive: 0.525
GCACAGAAGUUAUUUAGCUTT against Fcho2 | inactive: -0.751
GCUAGCACAAACAAAAUGUTT against Prr9 | inactive: 0.117
GGGACUAUUCCUCCAGAGUTT against Cast | inactive: -0.439
GGACGAGAAGAUCAACAUCTT against Trim54 | inactive: 1.34
GGUCCUGAAUUUCAUCCUUTT against B4galnt2 | inactive: 0.459
CCGAGGAUGCUAUUUAAUCTT against Olfr183 | inactive: 1.59
GGGUUGGAACAAGGUAAUUTT against Usp16 | inactive: -0.546
GGGCCAUGUAUCUUGACAUTT against ccdc198 | inactive: -0.215
GAUAGUGACAUUCUUGGAATT against Hspe1 | inactive: -0.0797
GGGAACCACACAGAGAUAATT against Cd160 | inactive: 0.0108
GGUUUGCCAAGAAAACUUATT against Rnf145 | inactive: 0.0529
GGAGGAAAAUGAUGGAGAGTT against Lysmd1 | active: 2.28
CCCUUGUACAAUAAUAAAGTT against Romo1 | inactive: -0.609
GGAUAAGUCAGAGCUAUAUTT against Bicdl2 | inactive: -1.05
GCAUAAACUUUAGGCAUGGTT against Alg13 | inactive: -0.123
GGGUCACUGAAGAUUAUAUTT against Inhbc | inactive: 0.0519
CCCUCGUCUGAAAUGGAAATT against Nploc4 | active: -2.02
GGUUAAGGAAGUAAAAAAGTT against Gsr | inactive: -0.487
GGAGAAUAUGUCGUCAUGATT against Gabra3 | inactive: -1.09

A different layout for part of the listing above.
GAUAGUGACAUUCUUGGAATT against Hspe1
  z-score: inactive: -0.0797
CCCUUGUACAAUAAUAAAGTT against Romo1
  z-score: inactive: -0.609
GCAUAAACUUUAGGCAUGGTT against Alg13
  z-score: inactive: -0.123

(further entries)

Sequence | z-score
GUUCCUCAGUAUGUUGCCATT against Olfr126 | active: -2.85
GGCAGAAUCUGCUUUAGUUTT against Mob2 | inactive: 0.441
GCCUUCAACAUUCGGACUUTT against Dnase1 | inactive: 0.185
CCUGCACAGCAAAUACAGUTT against Cenpm | inactive: 0.841
GGCCCAUUCAGAUCAUCCATT against Vmn1r65 | inactive: -0.197
GGUUUAAAGAAAGACUGAATT against 2810032G03Rik | inactive: -0.0773
UAAAAUUCCCUUCUGCUCATT against Olfr814 | inactive: -0.69
GGUGUCAGAACACAUCGCATT against Selenop | inactive: -0.225
CCAAUUAUCCCGGGACCUATT against Ctag2 | inactive: -1.47
CCAGCCUUCAAUUGUGGUCTT against Scn1b | inactive: 0.672
GGACAACUGAACUACCUCGTT against Paqr3 | inactive: -0.544
GGAAAGAAGGACAUGUUGCTT against Fbxo2 | inactive: -1.22
GGACUGAAUAUCUUCUUUGTT against Rrh | inactive: 0.0063
GGUGCUACAAGUGUACUGATT against Zswim2 | active: -2.14
GGCUCAGGACAUGUAUUACTT against Rab30 | inactive: -1.66
GGGUCUCUGUAUGCAUAUATT against Dbpht1 | inactive: -0.238
GGCAGUCAGUUUAAAUAAATT against Prr11 | inactive: -0.217
GCGGAUUCACUUCUACUACTT against Acer1 | inactive: 0.693
GCAUCCUGGCUGCUAUCAUTT against Olfr399 | inactive: -1.51
GGAGACCCAAGUGAUUCUGTT against Eral1 | inactive: -1.63
CCUGUGGGACUCAAUGUUGTT against 2310039H08Rik | inactive: -0.722
GGAAUGUGACUGGGCUAGATT against Txndc15 | inactive: -0.367

Two records drawn at random from those above:
Sequence | z-score
GGUGCUACAAGUGUACUGATT against Zswim2 | active: -2.14
CCAAUUAUCCCGGGACCUATT against Ctag2 | inactive: -1.47

(cont.)

Sequence | z-score
GGCACAUGGCAAUUCAUCATT against Tm4sf20 | inactive: -1.08
GGAUAUUGAUUCAGUCAAGTT against Rac2 | inactive: -1.16
GGAACCCAUCUCUCAAGCATT against Atp5g1 | inactive: 0.563
GGCUGAUUAUAUUUUUGGUTT against Ush1g | inactive: 0.671
GGAUUACGAGAACAAAAACTT against Jag1 | inactive: -0.774
CCACUUAGGUUAGAAAGAATT against R3hdm1 | inactive: -0.77
GCAGGUAAGUUAAAUGAUGTT against Ccdc148 | inactive: 0.961
GGAAUAAAGCUACAUUGUUTT against Arhgap11a | inactive: -0.364
GGGCCUUGAGCUCUAUUUATT against Derl3 | inactive: -0.485
CGGGAUCAGGUUUCACUGATT against Mettl25 | inactive: -1
CCAGGUGUACGUCCUACAATT against Pofut2 | inactive: 0.543
CCUUGGCAGGUAUAGUGUUTT against Klk9 | inactive: -1.09
GGUGUUUACUAGUUUCUGATT against Neurod6 | inactive: -0.593
CGCCCUGUUUGGUGAACUUTT against Pcdhga2 | inactive: 0.196
GCUAAAGUUCCAAUAUGGGTT against Mepce | inactive: -0.162
GGGCUAUCCUUCUGAAUUUTT against Csnk1d | inactive: 1.46
GUGCAAACGGCAAACAUUCTT against 1700001G17Rik | inactive: 1.89
GGAACGGAUUCUAUCCAAUTT against Omt2b | inactive: -0.229
